{"sequences": {"note": "By UniProt entry, the sequences of proteins in these tests, tags left out.", "UniProt Q9Y657": "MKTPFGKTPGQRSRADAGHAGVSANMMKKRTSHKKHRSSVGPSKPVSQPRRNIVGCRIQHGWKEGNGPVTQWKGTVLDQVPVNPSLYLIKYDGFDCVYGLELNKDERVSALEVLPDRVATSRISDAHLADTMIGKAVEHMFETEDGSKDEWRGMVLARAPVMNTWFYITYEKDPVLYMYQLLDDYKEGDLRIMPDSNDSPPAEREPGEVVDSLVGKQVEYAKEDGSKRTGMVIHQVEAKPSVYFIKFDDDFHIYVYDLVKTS", "UniProt P03165": "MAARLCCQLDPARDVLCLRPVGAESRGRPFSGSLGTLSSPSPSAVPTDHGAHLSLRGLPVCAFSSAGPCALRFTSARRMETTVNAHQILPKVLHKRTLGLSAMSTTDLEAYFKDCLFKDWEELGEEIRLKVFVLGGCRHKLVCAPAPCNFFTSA"}, "source": "paper PMC7732092", "key": {"[1]": {"biological_target": "Spindlin1 (endogenous) (human (endogenous in HepG2)) (UniProt Q9Y657)", "assay": "co-IP; whole-cell extracts of HepG2 cells transduced with a lentiviral vector encoding Flag-HA-HBx; immunoprecipitation with anti-Spindlin1 antibodies; Western blot with anti-HA or anti-Spin1 antibodies"}, "His-myc-Spindlin1": {"biological_target": "His-myc-Spindlin1 (UniProt Q9Y657)", "assay": "co-IP; HEK293 cells transfected with His-myc-Spin1 and HA-HBx; immunoprecipitation with anti-Myc antibodies; Western blot with anti-His or anti-Myc and anti-HA antibodies"}, "[2]": {"biological_target": "Flag-tagged HBx wt (hepatitis B virus) (UniProt P03165)", "assay": "co-IP; HEK293 cells co-transfected with Flag-tagged HBx and His-myc-Spin1; immunoprecipitation with anti-Flag antibodies; anti-Myc and anti-Flag immunoblot, Odyssey system; signal normalised to HBx in the IP/HBx in the input"}}, "note": "Results are given in words; binding and its absence hold for the method and conditions named. In cells and extracts the contact can be indirect. Some entries that bind do so weakly or less than the wild type.", "data": [{"substance": "Flag-HA-HBx (from UniProt P03165 1-154)", "values": [{"measurement": "binding", "setting": "[1]", "result": "binds"}]}, {"substance": "HA-HBx (from UniProt P03165 1-154)", "values": [{"measurement": "binding", "setting": "His-myc-Spindlin1", "result": "binds"}]}, {"substance": "His-myc-Spindlin1 (from UniProt Q9Y657 1-262)", "values": [{"measurement": "binding", "setting": "[2]", "result": "binds"}]}]}
